Assay results taken from patent US20260001910A1 (PreveCeutical Medical Inc., priority 2021, published 2026).

Assay: general procedure: Fmoc solid-phase peptide synthesis; Rink Amide resin (0.47 meq/g); Oxyma Pure and DIPCDI
Settings: whole synthesis

PEPTIDE1{[dY].G.G.[dF].[dL].[dR].[dR].[am]}$$$$V2.0
final HPLC purity: 98.3%

Some peptides are written in HELM: one residue between dots, names in brackets for other building blocks, links after the first $.
